# Results of single-concentration screens

Amino acid sequences for entries named in this document (tags omitted). Residues count along the entry.
UniProt Q4DA54, 1-478: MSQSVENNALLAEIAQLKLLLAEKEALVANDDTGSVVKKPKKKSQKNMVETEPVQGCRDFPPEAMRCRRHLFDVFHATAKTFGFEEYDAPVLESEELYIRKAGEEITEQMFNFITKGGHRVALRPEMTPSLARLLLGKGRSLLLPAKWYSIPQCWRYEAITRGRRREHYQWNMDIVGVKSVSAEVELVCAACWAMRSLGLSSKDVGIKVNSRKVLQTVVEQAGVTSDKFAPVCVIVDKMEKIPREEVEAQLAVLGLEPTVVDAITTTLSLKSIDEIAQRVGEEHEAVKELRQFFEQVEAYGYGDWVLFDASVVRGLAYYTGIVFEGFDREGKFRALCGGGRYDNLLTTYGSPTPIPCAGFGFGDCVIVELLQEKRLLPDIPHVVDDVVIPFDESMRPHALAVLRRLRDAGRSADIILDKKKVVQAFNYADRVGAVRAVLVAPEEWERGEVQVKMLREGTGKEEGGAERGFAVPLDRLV
UniProt P9WFT3, whole entry: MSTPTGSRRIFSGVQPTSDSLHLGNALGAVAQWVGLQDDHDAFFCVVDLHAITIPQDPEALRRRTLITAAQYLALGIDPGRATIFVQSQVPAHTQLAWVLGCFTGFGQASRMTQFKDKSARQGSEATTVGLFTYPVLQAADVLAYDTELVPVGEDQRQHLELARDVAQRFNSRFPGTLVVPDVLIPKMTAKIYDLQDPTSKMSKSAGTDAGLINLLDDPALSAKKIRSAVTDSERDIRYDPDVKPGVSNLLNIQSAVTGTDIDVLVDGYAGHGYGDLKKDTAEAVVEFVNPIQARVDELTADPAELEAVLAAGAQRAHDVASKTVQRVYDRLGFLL
UniProt I6X8D2, whole entry: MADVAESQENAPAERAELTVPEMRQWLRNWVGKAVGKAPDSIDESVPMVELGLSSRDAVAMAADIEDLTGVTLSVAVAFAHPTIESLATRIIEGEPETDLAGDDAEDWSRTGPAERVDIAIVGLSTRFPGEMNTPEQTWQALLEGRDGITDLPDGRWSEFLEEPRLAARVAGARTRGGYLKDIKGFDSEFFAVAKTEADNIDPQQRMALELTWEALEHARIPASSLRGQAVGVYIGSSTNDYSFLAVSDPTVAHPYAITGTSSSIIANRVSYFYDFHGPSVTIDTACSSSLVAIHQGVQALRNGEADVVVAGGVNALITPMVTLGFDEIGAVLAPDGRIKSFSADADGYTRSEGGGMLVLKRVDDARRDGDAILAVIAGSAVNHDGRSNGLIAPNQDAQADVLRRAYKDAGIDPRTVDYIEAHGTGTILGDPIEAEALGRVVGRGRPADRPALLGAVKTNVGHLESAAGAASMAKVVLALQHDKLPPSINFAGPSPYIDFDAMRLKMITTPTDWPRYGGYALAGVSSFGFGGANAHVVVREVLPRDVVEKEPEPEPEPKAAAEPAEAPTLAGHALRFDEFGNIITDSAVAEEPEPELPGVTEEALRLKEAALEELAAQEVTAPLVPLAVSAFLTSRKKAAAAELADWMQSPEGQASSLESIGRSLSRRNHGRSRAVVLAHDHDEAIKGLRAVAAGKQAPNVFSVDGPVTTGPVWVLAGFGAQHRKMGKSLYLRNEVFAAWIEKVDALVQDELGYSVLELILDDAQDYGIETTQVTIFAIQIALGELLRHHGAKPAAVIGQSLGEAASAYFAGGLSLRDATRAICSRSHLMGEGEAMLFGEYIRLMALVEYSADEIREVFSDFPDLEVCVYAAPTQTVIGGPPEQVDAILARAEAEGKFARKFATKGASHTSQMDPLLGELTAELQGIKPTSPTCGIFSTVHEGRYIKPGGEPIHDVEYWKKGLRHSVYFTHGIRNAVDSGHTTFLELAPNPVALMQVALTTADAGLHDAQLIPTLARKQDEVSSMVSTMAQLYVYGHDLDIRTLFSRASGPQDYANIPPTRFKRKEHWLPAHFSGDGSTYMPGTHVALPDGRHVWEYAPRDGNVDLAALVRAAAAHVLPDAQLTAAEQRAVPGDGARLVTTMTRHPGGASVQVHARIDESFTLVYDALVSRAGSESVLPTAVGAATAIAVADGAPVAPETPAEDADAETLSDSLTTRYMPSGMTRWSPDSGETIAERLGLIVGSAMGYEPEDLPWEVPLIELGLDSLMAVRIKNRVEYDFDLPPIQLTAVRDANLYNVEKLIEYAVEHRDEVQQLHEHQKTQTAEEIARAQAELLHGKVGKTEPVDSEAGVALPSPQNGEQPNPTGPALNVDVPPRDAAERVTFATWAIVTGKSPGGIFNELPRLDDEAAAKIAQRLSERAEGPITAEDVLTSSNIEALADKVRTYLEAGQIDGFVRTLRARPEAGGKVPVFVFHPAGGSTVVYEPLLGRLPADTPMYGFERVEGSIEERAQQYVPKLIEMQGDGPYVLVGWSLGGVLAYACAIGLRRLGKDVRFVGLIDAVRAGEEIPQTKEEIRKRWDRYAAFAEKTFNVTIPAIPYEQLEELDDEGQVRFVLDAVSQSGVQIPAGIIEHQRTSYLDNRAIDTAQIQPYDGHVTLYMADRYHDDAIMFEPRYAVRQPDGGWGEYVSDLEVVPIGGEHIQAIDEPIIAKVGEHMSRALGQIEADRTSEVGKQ
UniProt Q8IDJ8, 1-583: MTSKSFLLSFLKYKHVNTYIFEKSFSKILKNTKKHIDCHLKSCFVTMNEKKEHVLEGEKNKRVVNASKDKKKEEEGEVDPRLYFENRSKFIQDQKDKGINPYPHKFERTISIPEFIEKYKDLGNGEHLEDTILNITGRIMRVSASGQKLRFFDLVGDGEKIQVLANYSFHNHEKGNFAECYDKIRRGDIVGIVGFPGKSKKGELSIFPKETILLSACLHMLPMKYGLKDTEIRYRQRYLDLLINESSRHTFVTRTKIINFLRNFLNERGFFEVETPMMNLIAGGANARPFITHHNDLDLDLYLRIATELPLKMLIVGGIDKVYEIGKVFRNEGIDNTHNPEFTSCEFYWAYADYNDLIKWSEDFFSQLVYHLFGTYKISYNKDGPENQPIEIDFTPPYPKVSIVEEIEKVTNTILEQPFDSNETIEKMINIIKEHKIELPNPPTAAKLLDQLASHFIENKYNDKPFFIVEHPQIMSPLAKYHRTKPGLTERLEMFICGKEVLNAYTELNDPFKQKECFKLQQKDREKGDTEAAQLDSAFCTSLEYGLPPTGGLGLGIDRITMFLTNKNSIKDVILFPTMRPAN

Data taken from ChEMBL document CHEMBL3988442, “University of Dundee, Small-Polar-MMV Screening Library” (2021).

TcHisRS: 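Histidine-tRNA ligase, Trypanosoma cruzi CL Brener (UniProt Q4DA54). Enzyme assay of histidyl-tRNA synthetase; the read-out is not stated. Concentration: 30 µM. The record gives no direction; compounds that gave an IC50 in retests scored well above the rest, so higher reads as stronger inhibition. About 69,000 compounds were tested under these conditions; 0.045% (about 31) showed 50% or more at least once.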
MtTrpRS: 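Tryptophan-tRNA ligase, Mycobacterium tuberculosis (UniProt P9WFT3). Enzyme assay of tryptophanyl-tRNA synthetase; the read-out is not stated. Concentration: 10 µM. Direction is not recorded; retested compounds ran higher, which suggests that high means inhibition. Size under these conditions: about 65,000 compounds, about 64 of them at 50% or above in at least one test.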
Pks13 thioesterase: 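Enzyme assay of the thioesterase domain of polyketide synthase 13; the read-out is not stated. Target: Polyketide synthase Pks13, Mycobacterium tuberculosis (UniProt I6X8D2). Tested at 30 µM. The record gives no direction; the compounds picked for IC50 retests had high values, so higher reads as stronger inhibition. Size under these conditions: about 67,000 compounds, about 300 of them at 50% or above in at least one test.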
PfKRS1: 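Enzyme assay of the cytosolic lysyl-tRNA synthetase in 384-well plates, read by luminescence. Target: Lysine-tRNA ligase, Plasmodium falciparum 3D7 (UniProt Q8IDJ8). Concentration: 30 µM. Higher reads as stronger inhibition, judged from the few compounds that gave an IC50. About 69,000 compounds were tested under these conditions; 0.071% (about 49) showed 50% or more at least once.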
Toxoplasma: 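Assay of Toxoplasma gondii numbers, read through their beta-galactosidase reporter with a colour substrate. Tested at 10 µM. Higher reads as fewer parasites (inferred from which compounds were picked for retests). About 67,000 compounds were tested under these conditions; 0.38% (about 260) showed 50% or more at least once.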

Each number is a percent effect as filed.
The controls that fix the scale are not given in the record; negative values are as filed.
Compounds were drawn at random from those tested, without regard to their results.

{"smiles": "O=C(O)CC(O)(CC(=O)O)C(=O)O.OCCN(Cc1ccncc1)CC1(c2ccc(Cl)cc2)CC1", "Toxoplasma": -5.704}
{"smiles": "COCCNC(=O)C(C)n1nc(-c2ccco2)cc(N)c1=O", "stereo": "centres undefined", "TcHisRS": 3.714, "MtTrpRS": 12.82, "Pks13 thioesterase": -13.46, "PfKRS1": -2.047, "Toxoplasma": -25.96}
{"smiles": "CN(C)C(=O)c1cn[nH]c1C1(C)CCCN(Cc2ccccn2)C1", "stereo": "centres undefined", "TcHisRS": 2.239, "MtTrpRS": 8.406, "Pks13 thioesterase": -25.02, "PfKRS1": -1.006, "Toxoplasma": -11.08}
{"smiles": "O=C(NCCNc1ccc(C(F)(F)F)cn1)c1ccc(Cl)cc1F", "TcHisRS": 3.79, "MtTrpRS": 2.006, "Pks13 thioesterase": -19.33, "PfKRS1": 0.8399, "Toxoplasma": 10.34}
{"smiles": "O=C(c1ccc2[nH]nnc2c1)N1CCCC(n2cccn2)C1", "stereo": "centres undefined", "TcHisRS": -0.8403, "MtTrpRS": 0.5696, "PfKRS1": 9.938, "Toxoplasma": 3.243}
{"smiles": "CC(C)COC(C)C(=O)NCc1ccc(-n2cncn2)nc1", "stereo": "centres undefined", "TcHisRS": 0.8403, "MtTrpRS": -1.871, "Pks13 thioesterase": -5.66, "PfKRS1": -0.7417, "Toxoplasma": 5.327}
{"smiles": "O=C(NCCCNc1ccc(C(F)(F)F)cn1)c1ccc(F)cc1", "TcHisRS": 5.882, "MtTrpRS": -3.64, "Pks13 thioesterase": -3.045, "PfKRS1": -0.8672, "Toxoplasma": 15.58}
{"smiles": "Cc1cnc(CN(Cc2ccccc2)CC(O)c2cccs2)cn1", "stereo": "centres undefined", "TcHisRS": -0.8475, "MtTrpRS": 4.191, "Pks13 thioesterase": -11.27, "PfKRS1": -0.1445, "Toxoplasma": 4.519}
{"smiles": "CC(C)Cn1ncc2cc(C(=O)N(C)CCc3ccccc3)cnc21", "TcHisRS": 9.524, "MtTrpRS": -0.4938, "Pks13 thioesterase": -27.16, "PfKRS1": 2.127, "Toxoplasma": -1.323}
{"smiles": "[H][C@@]12C[C@@H](Oc3ccccc3)C[C@]1([H])CN(C(=O)c1cnn(C)c1)C2", "Toxoplasma": 13.59}
{"smiles": "CCN(C)C(=O)c1cccc(C(=O)N(C)Cc2cccc(O)c2)c1", "TcHisRS": 2, "MtTrpRS": 0.5874, "Pks13 thioesterase": -5.752, "PfKRS1": -7.11, "Toxoplasma": 13.91}
{"smiles": "Cc1nn(C)c2c(=O)n(Cc3ccc(F)cc3)nnc12", "TcHisRS": 1.739, "MtTrpRS": -2.073, "Pks13 thioesterase": 2.895, "PfKRS1": 3.715, "Toxoplasma": 62.42}
{"smiles": "[H][C@@]12C[C@H](C)O[C@@]1([H])CCN(C(=O)COC)C2", "Toxoplasma": -51.25}
{"smiles": "O=C(c1cc(Br)c[nH]1)N1CCN(Cc2ccco2)CC1", "TcHisRS": -3.448, "MtTrpRS": 16.19, "Pks13 thioesterase": 2.446, "PfKRS1": -4.998, "Toxoplasma": -11.91}
{"smiles": "CN1C[C@@H]2COC[C@]2(C(=O)NCc2cccs2)C1", "TcHisRS": -8.046, "MtTrpRS": 23.81, "PfKRS1": -5.202}

Once more, the final 2:

- O=C(c1cc(Br)c[nH]1)N1CCN(Cc2ccco2)CC1 : TcHisRS: -3.448%; MtTrpRS: 16.19%; Pks13 thioesterase: 2.446%; PfKRS1: -4.998%; Toxoplasma: -11.91%
- CN1C[C@@H]2COC[C@]2(C(=O)NCc2cccs2)C1 : TcHisRS: -8.046%; MtTrpRS: 23.81%; PfKRS1: -5.202%